From PubChem BioAssay AID264 (DTP/NCI, 2004) come the findings set out here.

The list is a part of this screen's results and no random one: it gathers tests that were run many times, whatever their T/C, doses with no T/C, and many T/C values between a quarter and a half above the control. Other doses and runs of a compound stand elsewhere. T/C is the treated group as % of the vehicle group. Schedules are NCI's codes, read here as Q, the interval in days (D) or hours (H), X, the number of doses. Some T/C values are followed by the survivors on the day toxicity was checked, most often the fifth; where none is given, no animal had died by that day. Some entries give survivors of the animals treated and no T/C: the source holds a T/C of zero for them, seemingly a mark for toxic or unscored doses. Survivors were counted at the toxicity check, usually on the fifth day, unless a day is given; later deaths do not show. Some doses were run more than once; the values are given in rising order.

The subject of the test is nude mice, LX-1 lung xenograft intrarenal, tumor weight T/C. Description: NCI In Vivo Anticancer Drug Screen. Data for tumor model Human Lung LX-1 Xenograft (intrarenal inoculation) in NU/NU Swiss (nude) mice. Conditions: T/C endpoint: mean tumor weight change, higher T/C = larger tumour; for T/C: evaluated on day 11. The essentials:
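Activity was scored by measuring tumors in treated animals and in vehicle controls, then reporting the treated result as a fraction of the control result.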
For orientation: Xenograft models place foreign cells or tissue in a host animal.

Where [1] appears, read: dose: 50.0 mg/kg/injection, schedule: Q01DX010 (sc), vehicle: saline with Tween-80.
The mark [2] stands for this setting: dose: 100.0 mg/kg/injection, schedule: Q01DX010 (sc), vehicle: saline with Tween-80.
[3] abbreviates: dose: 300.0 mg/kg/injection, schedule: Q04DX003 (sc), vehicle: saline with Tween-80.
Setting [4] is: dose: 40.0 mg/kg/injection, schedule: Q04DX003 (sc), vehicle: saline.
Setting [5] is: dose: 300.0 mg/kg/injection, schedule: Q04DX003 (sc), vehicle: saline.
Where [6] appears, read: dose: 600.0 mg/kg/injection, schedule: Q04DX003 (sc), vehicle: saline.
The mark [7] stands for this setting: dose: 600.0 mg/kg/injection, schedule: Q04DX003 (sc), vehicle: Klucel (hydroxypropylcellulose) (HPC).
Setting [8] is: dose: 1200.0 mg/kg/injection, schedule: Q04DX003 (sc), vehicle: Klucel (hydroxypropylcellulose) (HPC).

Take `Nc1nc(N)c2c(Cl)c(CNc3ccc(Cl)c(Cl)c3)ccc2n1`: the survivor count is on record as 0 of 6 on day 11 under setting [1]; 0 of 6 on day 11 under setting [2]; 0 of 6 on day 11 (dose: 200.0 mg/kg/injection, schedule: Q01DX010 (sc), vehicle: saline with Tween-80).

For the molecule `CN1CCN(c2ccc([N+](=O)[O-])c3no[n+]([O-])c23)CC1`, the survivor count is on record as 2 of 6 on day 11 under setting [3]; 2 of 6 on day 11 (dose: 600.0 mg/kg/injection, schedule: Q04DX003 (sc), vehicle: saline with Tween-80); 0 of 6 on day 11 (dose: 1200.0 mg/kg/injection, schedule: Q04DX003 (sc), vehicle: saline with Tween-80).

Take `CC1=C(O)C(=O)[C@@H]2O[C@@H]2C1=O`: the survivor count by setting is: (dose: 9.38 mg/kg/injection, schedule: Q04DX003 (sc), vehicle: saline) 2 of 5 on day 11; (dose: 18.75 mg/kg/injection, schedule: Q04DX003 (sc), vehicle: saline) 3 of 5 on day 11; (dose: 37.5 mg/kg/injection, schedule: Q04DX003 (sc), vehicle: saline) 1 of 6 on day 11; (dose: 75.0 mg/kg/injection, schedule: Q04DX003 (sc), vehicle: saline) 0 of 6 on day 11.

As for `CC(C)(C)N1CC1CNC(=O)C(=O)NCC1CN1C(C)(C)C` (configuration not stated), where the note is “dose: 50.0 mg/kg/injection, schedule: Q04DX003 (sc), vehicle: saline with Tween-80”, the survivor count is on record as 0 of 6 on day 11.

As to `CC[C@@]1(O)C[C@H](OC2CC(N(C)C)C(OC3CC(O)C(OC4CCC(=O)C(C)O4)C(C)O3)C(C)O2)c2c(cc3c(c2O)C(=O)c2c(O)ccc(O)c2C3=O)[C@H]1C(=O)OC` (some centres not stated), the survivor count (dose: 12.0 mg/kg/injection, schedule: Q04DX003 (sc), vehicle: water) was 1 of 6 on day 11 and the survivor count (dose: 24.0 mg/kg/injection, schedule: Q04DX003 (sc), vehicle: water) is given as 0 of 6 on day 11.

On to `c1cc(-c2cc3ccc(C4=NCCN4)cc3[nH]2)ccc1C1=NCCN1`, for which the survivor count (dose: 200.0 mg/kg/injection, schedule: Q04DX003 (sc), vehicle: saline) is 1 of 6 on day 11.

Take `CCC1CN2C(=N1)c1ccccc1-c1cc(Cl)ccc12` (configuration not stated): under setting [2], the survivor count is listed as 1 of 3 on day 11.

For `C/C=C/c1cc2c(c(=O)o1)C(=O)[C@@H](O)[C@H](C)O2`, the survivor count reads like this: (dose: 400.0 mg/kg/injection, schedule: Q04DX003 (sc), vehicle: saline with Tween-80) 2 of 6 on day 11; (dose: 800.0 mg/kg/injection, schedule: Q04DX003 (sc), vehicle: saline with Tween-80) 0 of 6 on day 11.

For `CN=C(N)N/N=C(\c1ccccc1)c1ccc(Br)cc1`, the survivor count (dose: 100.0 mg/kg/injection, schedule: Q04DX003 (sc), vehicle: saline with Tween-80) is given as 2 of 6 on day 11.

Consider `O=C(NP(=O)(N1CC1)N1CC1)c1cc(I)ccc1I`, for which the survivor count by setting is: (dose: 200.0 mg/kg/injection, schedule: Q01DX010 (sc), vehicle: saline) 0 of 3 on day 11; (dose: 400.0 mg/kg/injection, schedule: Q01DX010 (sc), vehicle: saline) 0 of 3 on day 11.

As for `CCC/C=C/C=C/C(=O)OC1/C(=C/C(=O)OC)CC2CC(C(C)O)OC(=O)CC(O)CC3CC(OC(C)=O)C(C)(C)C(O)(CC4C/C(=C/C(=O)OC)CC(/C=C/C(C)(C)C1(O)O2)O4)O3` (configuration not stated), for the setting “dose: 4.0 mg/kg/injection, schedule: Q04DX003 (sc), vehicle: saline + alcohol”, the survivor count is listed as 2 of 6 on day 11.

As to `COc1nc(=O)n(C2C=CC(=O)O2)cc1F` (configuration not stated), under “dose: 200.0 mg/kg/injection, schedule: Q04DX003 (sc), vehicle: Klucel (hydroxypropylcellulose) (HPC)”, the survivor count is 0 of 6 on day 11.

Consider `CC(C)CC(NC(=O)CF)C(=O)O` (configuration not stated), for which, under setting [4], the survivor count is reported as 0 of 6 on day 11.

With `COC(=O)c1ccoc1`, the T/C under setting [5] is 136 % of control. Moreover, the survivor count by setting is: under setting [6], 1 of 6 on day 11; (dose: 1200.0 mg/kg/injection, schedule: Q04DX003 (sc), vehicle: saline) 0 of 6 on day 11.

Regarding `CC1(C)CC(=O)C(CSC(=O)c2ccccc2)C(=O)C1`, the survivor count under setting [7] is listed as 1 of 5 on day 11 and the survivor count under setting [8] was 0 of 6 on day 11.

Turning to `Cc1[nH]c(=O)[nH]c(=O)c1N(CCF)CCCl`, the T/C (dose: 10.0 mg/kg/injection, schedule: Q01DX010 (sc), vehicle: Klucel (hydroxypropylcellulose) (HPC)) was 147 % of control. Further, under “dose: 80.0 mg/kg/injection, schedule: Q01DX010 (sc), vehicle: Klucel (hydroxypropylcellulose) (HPC)”, the survivor count is 0 of 3 on day 11, 0 of 6 on day 11, 1 of 6 on day 11.

For the molecule `NC(=O)c1ncn2c(=O)n(CCCl)nnc12`, the survivor count reads like this: (dose: 100.0 mg/kg/injection, schedule: Q04DX003 (sc), vehicle: saline) 0 of 6 on day 11; (dose: 100.0 mg/kg/injection, schedule: Q04DX003 (sc), vehicle: suspension in saline) 2 of 6 on day 11.

As to `O=NN(CCCl)C(=O)NC1CCC(=O)NC1=O` (configuration not stated), the survivor count is 1 of 2 on day 11 (dose: 6.25 mg/kg/injection, schedule: Q01DX010 (sc), vehicle: saline with Tween-80); 0 of 3 on day 11 (dose: 12.5 mg/kg/injection, schedule: Q01DX010 (ip), vehicle: saline with Tween-80); 0 of 2 on day 11 and 0 of 3 on day 11 (dose: 12.5 mg/kg/injection, schedule: Q01DX010 (sc), vehicle: saline with Tween-80); 0 of 3 on day 11 (dose: 20.8 mg/kg/injection, schedule: Q04DX003 (ip), vehicle: saline with Tween-80); 0 of 3 on day 11 (dose: 25.0 mg/kg/injection, schedule: Q01DX010 (sc), vehicle: saline with Tween-80); 0 of 3 on day 11 (dose: 41.6 mg/kg/injection, schedule: Q04DX003 (ip), vehicle: saline with Tween-80). The survivor count under setting [1] is 0 of 3 on day 11.

For `O=NN(CCCl)C(=O)Oc1cc(Cl)c(Cl)cc1Cl`, under “dose: 150.0 mg/kg/injection, schedule: Q04DX003 (sc), vehicle: Klucel (hydroxypropylcellulose) (HPC)”, the T/C is 126 % of control [5 of 6 alive on day 11].

Take `C=C(C)[C@H]1CN[C@H](C(=O)O)[C@H]1CC(=O)O`: the survivor count reads like this: under setting [4], 3 of 6 on day 11; (dose: 80.0 mg/kg/injection, schedule: Q04DX003 (sc), vehicle: saline) 0 of 6 on day 11.

As to `Nc1nc(/C=C(/O)c2ccccc2)c2ncn(C3OC(CO)C(O)C3O)c2n1` (configuration not stated), where the note is “dose: 800.0 mg/kg/injection, schedule: Q04DX003 (sc), vehicle: distilled water + Tween-80”, the T/C is 149 % of control.

With `O=C1C(O)=C(c2ccccc2)C(=O)C(O)=C1c1ccccc1`, the survivor count under setting [5] was 1 of 6 on day 11 and the survivor count under setting [6] is on record as 0 of 6 on day 11.

In the case of `NC(=S)N/N=C/c1ccc(OC(=O)COc2ccccc2)cn1`, the survivor count (dose: 2400.0 mg/kg/injection, schedule: Q04DX003 (sc), vehicle: saline with Tween-80) was 2 of 6 on day 11.

Turning to `CNC(=O)n1c(N)nc(-c2ccccc2)c1-c1ccccc1`, the survivor count under setting [3] is given as 2 of 5 on day 11.

`NC(=O)c1ncn(C2OC(CO)C(O)C2O)c1O` (configuration not stated): the T/C is 134 % of control (dose: 300.0 mg/kg/injection, schedule: Q04DX003 (sc), vehicle: Klucel (hydroxypropylcellulose) (HPC)); 126 % of control under setting [7]; 126 % of control under setting [8].

For `CNC(=O)c1cccc2c(Nc3ccc(NS(C)(=O)=O)cc3OC)c3cccc(C)c3nc12`, the survivor count was 1 of 3 on day 11 (dose: 100.0 mg/kg/injection, schedule: Q04DX003 (sc), vehicle: water) and 0 of 3 on day 11 (dose: 200.0 mg/kg/injection, schedule: Q04DX003 (sc), vehicle: water).
